Source: the M2OR odorant receptor database
This is a selection; strong and weak results do not stand in their true shares. The calls were merged from several studies; some rest on single wells. Some of the results follow.

Chains of the proteins cited; added tags and fusions are not shown. Chains listed by the source or under a name are the forms on record and can include a tag or linker.
OR7D4 H131Q, as listed by the source, stated change not applied: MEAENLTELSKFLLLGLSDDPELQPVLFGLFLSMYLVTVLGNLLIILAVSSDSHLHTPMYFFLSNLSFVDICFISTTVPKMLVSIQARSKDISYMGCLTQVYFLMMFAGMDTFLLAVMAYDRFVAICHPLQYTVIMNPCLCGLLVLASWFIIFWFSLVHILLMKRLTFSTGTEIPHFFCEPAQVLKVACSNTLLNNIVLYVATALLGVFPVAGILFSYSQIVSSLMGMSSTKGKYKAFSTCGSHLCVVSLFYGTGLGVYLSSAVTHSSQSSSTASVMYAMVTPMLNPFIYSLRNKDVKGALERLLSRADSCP
OR7D4 L162P, as listed by the source, stated change not applied: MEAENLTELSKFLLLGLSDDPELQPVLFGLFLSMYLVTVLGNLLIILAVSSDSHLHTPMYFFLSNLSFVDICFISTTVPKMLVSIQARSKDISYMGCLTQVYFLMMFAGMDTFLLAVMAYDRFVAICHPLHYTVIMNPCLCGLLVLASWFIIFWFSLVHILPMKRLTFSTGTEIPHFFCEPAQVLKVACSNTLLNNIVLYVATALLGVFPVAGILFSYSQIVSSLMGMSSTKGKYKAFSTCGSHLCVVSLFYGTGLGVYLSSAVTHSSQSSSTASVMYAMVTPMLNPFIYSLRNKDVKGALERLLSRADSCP
OR7D4 D52G, as listed by the source, stated change not applied: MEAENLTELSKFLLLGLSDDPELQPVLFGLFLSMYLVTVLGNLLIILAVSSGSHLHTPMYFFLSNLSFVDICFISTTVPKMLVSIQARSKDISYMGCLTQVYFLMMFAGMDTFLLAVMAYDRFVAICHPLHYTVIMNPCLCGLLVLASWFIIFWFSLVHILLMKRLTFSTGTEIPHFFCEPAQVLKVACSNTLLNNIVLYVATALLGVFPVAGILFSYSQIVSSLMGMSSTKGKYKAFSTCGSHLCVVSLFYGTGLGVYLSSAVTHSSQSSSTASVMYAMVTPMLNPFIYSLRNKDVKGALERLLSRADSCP
OR7D4 S84N, as listed by the source, stated change not applied: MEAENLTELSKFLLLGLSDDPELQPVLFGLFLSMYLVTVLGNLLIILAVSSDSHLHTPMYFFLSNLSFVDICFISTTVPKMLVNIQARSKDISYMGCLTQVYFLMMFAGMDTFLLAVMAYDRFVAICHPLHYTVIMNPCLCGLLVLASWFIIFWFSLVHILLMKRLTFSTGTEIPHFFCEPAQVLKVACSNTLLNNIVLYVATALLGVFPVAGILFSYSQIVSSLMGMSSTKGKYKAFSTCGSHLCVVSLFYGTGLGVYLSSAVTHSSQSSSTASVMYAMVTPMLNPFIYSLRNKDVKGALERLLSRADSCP
OR7D4 A279D, as listed by the source, stated change not applied: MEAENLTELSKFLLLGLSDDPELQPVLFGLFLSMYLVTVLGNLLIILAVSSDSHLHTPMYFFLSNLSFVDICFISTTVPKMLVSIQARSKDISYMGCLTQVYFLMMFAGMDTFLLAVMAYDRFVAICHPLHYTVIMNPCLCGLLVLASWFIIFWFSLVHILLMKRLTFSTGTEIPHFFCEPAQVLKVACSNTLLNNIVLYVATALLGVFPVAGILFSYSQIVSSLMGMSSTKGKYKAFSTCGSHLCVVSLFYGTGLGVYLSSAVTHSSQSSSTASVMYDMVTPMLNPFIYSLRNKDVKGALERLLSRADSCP
OR7D4 M136I, as listed by the source, stated change not applied: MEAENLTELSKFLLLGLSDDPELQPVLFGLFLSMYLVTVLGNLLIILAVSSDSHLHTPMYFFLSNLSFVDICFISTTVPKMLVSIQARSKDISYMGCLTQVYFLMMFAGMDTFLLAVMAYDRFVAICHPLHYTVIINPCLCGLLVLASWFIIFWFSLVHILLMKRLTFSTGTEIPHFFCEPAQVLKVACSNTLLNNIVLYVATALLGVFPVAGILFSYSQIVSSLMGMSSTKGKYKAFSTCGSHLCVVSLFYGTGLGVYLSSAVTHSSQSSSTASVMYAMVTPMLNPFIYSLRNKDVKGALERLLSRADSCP
OR7D4 R88W, as listed by the source, stated change not applied: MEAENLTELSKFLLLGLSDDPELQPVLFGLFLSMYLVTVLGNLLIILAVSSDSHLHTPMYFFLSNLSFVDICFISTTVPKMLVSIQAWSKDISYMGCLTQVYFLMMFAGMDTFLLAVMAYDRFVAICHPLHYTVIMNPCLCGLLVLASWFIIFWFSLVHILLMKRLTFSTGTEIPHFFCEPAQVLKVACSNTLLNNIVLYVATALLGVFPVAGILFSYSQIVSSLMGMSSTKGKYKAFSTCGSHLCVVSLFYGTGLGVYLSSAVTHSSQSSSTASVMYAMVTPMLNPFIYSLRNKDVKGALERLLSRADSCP
OR7D4 C139R, as listed by the source, stated change not applied: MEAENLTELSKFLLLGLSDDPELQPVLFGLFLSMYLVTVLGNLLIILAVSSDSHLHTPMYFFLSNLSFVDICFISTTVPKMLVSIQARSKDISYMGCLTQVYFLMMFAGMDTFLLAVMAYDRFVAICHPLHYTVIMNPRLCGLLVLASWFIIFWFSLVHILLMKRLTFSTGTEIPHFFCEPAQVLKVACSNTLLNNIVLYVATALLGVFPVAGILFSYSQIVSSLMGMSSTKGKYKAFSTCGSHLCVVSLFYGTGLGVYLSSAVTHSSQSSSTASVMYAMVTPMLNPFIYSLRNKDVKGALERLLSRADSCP
OR7D4, as listed by the source: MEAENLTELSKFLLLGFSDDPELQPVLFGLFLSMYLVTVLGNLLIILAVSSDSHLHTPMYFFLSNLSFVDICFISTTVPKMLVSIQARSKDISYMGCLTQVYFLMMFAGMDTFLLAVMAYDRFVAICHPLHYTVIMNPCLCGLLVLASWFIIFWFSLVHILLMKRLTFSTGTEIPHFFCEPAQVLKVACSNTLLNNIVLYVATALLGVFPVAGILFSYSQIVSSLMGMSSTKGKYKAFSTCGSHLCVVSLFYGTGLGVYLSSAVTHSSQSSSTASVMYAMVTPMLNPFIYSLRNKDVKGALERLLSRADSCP
OR7D4 C139Y, as listed by the source, stated change not applied: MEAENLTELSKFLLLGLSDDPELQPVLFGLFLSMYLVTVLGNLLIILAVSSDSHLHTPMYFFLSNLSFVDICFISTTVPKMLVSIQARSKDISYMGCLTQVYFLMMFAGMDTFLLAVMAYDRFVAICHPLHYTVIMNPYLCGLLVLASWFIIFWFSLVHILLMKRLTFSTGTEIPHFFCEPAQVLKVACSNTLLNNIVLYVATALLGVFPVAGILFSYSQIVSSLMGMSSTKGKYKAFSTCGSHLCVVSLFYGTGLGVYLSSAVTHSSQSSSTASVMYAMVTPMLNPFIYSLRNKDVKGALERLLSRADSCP
OR7D4 T133M, as listed by the source, stated change not applied: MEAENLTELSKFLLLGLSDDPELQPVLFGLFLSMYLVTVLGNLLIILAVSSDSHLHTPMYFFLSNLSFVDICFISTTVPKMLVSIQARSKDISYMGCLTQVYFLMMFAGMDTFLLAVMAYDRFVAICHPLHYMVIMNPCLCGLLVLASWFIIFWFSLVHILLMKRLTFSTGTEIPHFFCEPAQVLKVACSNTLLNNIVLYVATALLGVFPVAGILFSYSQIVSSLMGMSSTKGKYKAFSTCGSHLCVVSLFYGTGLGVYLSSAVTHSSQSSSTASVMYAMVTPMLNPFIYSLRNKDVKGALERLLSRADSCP
OR7C1, as listed by the source: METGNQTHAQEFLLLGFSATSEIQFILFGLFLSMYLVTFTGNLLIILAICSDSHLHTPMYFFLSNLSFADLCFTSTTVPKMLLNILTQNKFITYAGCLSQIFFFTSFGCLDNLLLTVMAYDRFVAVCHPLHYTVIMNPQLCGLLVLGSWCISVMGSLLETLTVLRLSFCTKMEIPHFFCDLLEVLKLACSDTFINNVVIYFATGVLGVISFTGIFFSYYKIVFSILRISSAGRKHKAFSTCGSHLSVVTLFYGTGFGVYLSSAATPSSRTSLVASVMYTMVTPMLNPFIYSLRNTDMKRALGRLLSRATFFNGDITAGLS
OR7D4 S75C, as listed by the source, stated change not applied: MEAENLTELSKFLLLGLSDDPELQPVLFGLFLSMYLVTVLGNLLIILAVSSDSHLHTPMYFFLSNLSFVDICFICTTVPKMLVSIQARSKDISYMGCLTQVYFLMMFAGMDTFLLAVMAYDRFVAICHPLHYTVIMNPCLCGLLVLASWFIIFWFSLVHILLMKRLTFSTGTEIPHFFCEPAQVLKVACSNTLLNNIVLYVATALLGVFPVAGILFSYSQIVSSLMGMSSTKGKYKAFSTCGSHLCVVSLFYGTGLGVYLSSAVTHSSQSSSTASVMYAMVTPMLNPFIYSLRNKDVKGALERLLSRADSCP
OR7D4 L292M, as listed by the source, stated change not applied: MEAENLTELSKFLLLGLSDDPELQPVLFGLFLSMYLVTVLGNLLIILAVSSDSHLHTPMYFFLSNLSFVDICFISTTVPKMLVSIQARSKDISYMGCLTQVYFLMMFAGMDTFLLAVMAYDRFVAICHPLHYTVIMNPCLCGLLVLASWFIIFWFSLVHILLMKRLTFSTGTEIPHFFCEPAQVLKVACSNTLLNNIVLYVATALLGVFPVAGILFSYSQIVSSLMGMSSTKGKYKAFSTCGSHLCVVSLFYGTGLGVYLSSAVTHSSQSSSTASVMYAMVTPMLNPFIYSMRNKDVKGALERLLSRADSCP

Tests used:
Conditions in all cases: stereoisomer not certain
OR7C2 = test system: T1, OR7C2
T1 sequence (whole entry): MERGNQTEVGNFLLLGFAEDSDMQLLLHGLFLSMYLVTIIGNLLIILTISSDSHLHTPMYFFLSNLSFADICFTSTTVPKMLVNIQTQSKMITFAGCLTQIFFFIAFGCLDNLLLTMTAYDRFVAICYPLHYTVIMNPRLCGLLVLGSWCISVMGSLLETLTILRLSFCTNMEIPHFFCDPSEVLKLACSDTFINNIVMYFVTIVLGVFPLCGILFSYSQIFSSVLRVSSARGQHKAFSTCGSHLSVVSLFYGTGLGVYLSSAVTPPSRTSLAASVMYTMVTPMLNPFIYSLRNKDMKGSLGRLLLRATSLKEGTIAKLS
Summary of the method: (§1)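 Each entry records the cell line, G-protein, co-transfected protein and tags used. Methods varied with the source, often transient luciferase assays in mammalian cell lines. A receptor–molecule pair is called responsive (active) if the original authors judged its signal statistically different from baseline and non-responsive (inactive) otherwise.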

OR7D2 = test system: T2, OR7D2
T2 sequence (whole entry): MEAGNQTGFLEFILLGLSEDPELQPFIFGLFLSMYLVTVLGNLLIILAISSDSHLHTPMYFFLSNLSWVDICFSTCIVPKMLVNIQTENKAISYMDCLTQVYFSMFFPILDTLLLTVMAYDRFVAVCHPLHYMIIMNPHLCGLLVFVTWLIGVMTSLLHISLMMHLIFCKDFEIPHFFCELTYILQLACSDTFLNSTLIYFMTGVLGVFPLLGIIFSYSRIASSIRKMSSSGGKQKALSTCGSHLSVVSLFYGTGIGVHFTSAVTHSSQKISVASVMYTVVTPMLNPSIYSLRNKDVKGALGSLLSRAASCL
Summary of the method: as §1

OR7D4 (Homo sapiens) = molecular target: T3, OR7D4 (Homo sapiens) (UniProt Q8NG98)
T3 sequence (whole entry): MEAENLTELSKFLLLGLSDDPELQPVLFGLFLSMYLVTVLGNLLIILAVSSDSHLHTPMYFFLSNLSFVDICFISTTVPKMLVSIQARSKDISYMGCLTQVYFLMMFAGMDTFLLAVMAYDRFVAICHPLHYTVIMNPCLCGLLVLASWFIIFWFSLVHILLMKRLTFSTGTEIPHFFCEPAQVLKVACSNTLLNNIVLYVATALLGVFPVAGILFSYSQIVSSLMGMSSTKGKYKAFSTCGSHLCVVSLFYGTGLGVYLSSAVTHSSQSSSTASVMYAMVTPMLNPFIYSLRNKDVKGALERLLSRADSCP
Summary of the method: as §1

OR7C1 = test system: OR7C1
Summary of the method: as §1

OR7C2 (Homo sapiens) = OR7C2 (Homo sapiens) (UniProt O60412)
Summary of the method: as §1

OR7D2 (Homo sapiens) = OR7D2 (Homo sapiens) (UniProt Q96RA2)
Summary of the method: as §1

OR7D4 A279D = test system: OR7D4 A279D
Summary of the method: as §1

OR7D4 C139R = test system: OR7D4 C139R
Summary of the method: as §1

OR7D4 C139Y = test system: OR7D4 C139Y
Summary of the method: as §1

OR7D4 D52G = test system: OR7D4 D52G
Summary of the method: as §1

OR7D4 H131Q = test system: OR7D4 H131Q
Summary of the method: as §1

OR7D4 L162P = test system: OR7D4 L162P
Summary of the method: as §1

OR7D4 L292M = test system: OR7D4 L292M
Summary of the method: as §1

OR7D4 M136I = test system: OR7D4 M136I
Summary of the method: as §1

OR7D4 R88W = test system: OR7D4 R88W
Summary of the method: as §1

OR7D4 S75C = test system: OR7D4 S75C
Summary of the method: as §1

OR7D4 S84N = test system: OR7D4 S84N
Summary of the method: as §1

OR7D4 T133M = test system: OR7D4 T133M
Summary of the method: as §1

OR7D4 = test system: OR7D4
Summary of the method: as §1

With `CCCCCOC(C)=O` the “odorant receptor agonist call” value (OR7C2) was “inactive”, the “odorant receptor agonist call” value (OR7D2) was “inactive” and the “odorant receptor agonist call” value (OR7D4 (Homo sapiens)) was “inactive”.
With `CC12C=CCC1C1CCC3CC(=O)CCC3(C)C1CC2` (configuration not stated) the “odorant receptor agonist call” value (OR7C1) was “inactive”, the “odorant receptor agonist call” value (OR7C2 (Homo sapiens)) was “inactive” and the “odorant receptor agonist call” value (OR7C2) was “inactive”. For the same molecule, the “odorant receptor agonist call” value (OR7D2 (Homo sapiens)) was “inactive”, the “odorant receptor agonist call” value (OR7D2) was “inactive” and the “odorant receptor agonist call” value (OR7D4 (Homo sapiens)) was “active”. For the same molecule, the “odorant receptor agonist call” value (OR7D4 A279D) was “inactive”, the “odorant receptor agonist call” value (OR7D4 C139R) was “active” and the “odorant receptor agonist call” value (OR7D4 C139Y) was “active”. For the same molecule, the “odorant receptor agonist call” value (OR7D4 D52G) was “inactive”, the “odorant receptor agonist call” value (OR7D4 H131Q) was “active” and the “odorant receptor agonist call” value (OR7D4 L162P) was “inactive”. The “odorant receptor agonist call” value (OR7D4 L292M) was “active”, the “odorant receptor agonist call” value (OR7D4 M136I) was “inactive” and the “odorant receptor agonist call” value (OR7D4 R88W) was “active”. The “odorant receptor agonist call” value (OR7D4 S75C) was “inactive”, the “odorant receptor agonist call” value (OR7D4 S84N) was “active” and the “odorant receptor agonist call” value (OR7D4 T133M) was “active”. For the same molecule, the “odorant receptor agonist call” value (OR7D4) was “active”.
With `COc1ccccc1O` the “odorant receptor agonist call” value (OR7C2) was “inactive”, the “odorant receptor agonist call” value (OR7D2) was “inactive” and the “odorant receptor agonist call” value (OR7D4 (Homo sapiens)) was “inactive”.
For `COc1cc(C)ccc1O`, the “odorant receptor agonist call” value (OR7C2) was “inactive”, the “odorant receptor agonist call” value (OR7D2) was “inactive” and the “odorant receptor agonist call” value (OR7D4 (Homo sapiens)) was “inactive”.
For `CCCC(=O)O`, the “odorant receptor agonist call” value (OR7C2) was “inactive”, the “odorant receptor agonist call” value (OR7D2) was “inactive” and the “odorant receptor agonist call” value (OR7D4 (Homo sapiens)) was “inactive”.
In the case of `CC1=CCC(C(C)(C)O)CC1` (configuration not stated), the “odorant receptor agonist call” value (OR7C2) is reported as “inactive”, the “odorant receptor agonist call” value (OR7D2) is reported as “inactive” and the “odorant receptor agonist call” value (OR7D4 (Homo sapiens)) is reported as “inactive”.
`CC1COCc2cc3c(cc21)C(C)(C)C(C)C3(C)C` (configuration not stated) was tested, and the “odorant receptor agonist call” value (OR7C2) was “inactive” and the “odorant receptor agonist call” value (OR7D2) was “active”.
`CCCCCCCCCC=O` was tested, and the “odorant receptor agonist call” value (OR7C2) was “inactive”, the “odorant receptor agonist call” value (OR7D2) was “inactive” and the “odorant receptor agonist call” value (OR7D4 (Homo sapiens)) was “inactive”.
For `C=CCc1ccc(OC(C)=O)c(OC)c1`, the “odorant receptor agonist call” value (OR7C2) was “inactive”, the “odorant receptor agonist call” value (OR7D2) was “inactive” and the “odorant receptor agonist call” value (OR7D4 (Homo sapiens)) was “inactive”.
For `CC(=O)C(C)=O`, the “odorant receptor agonist call” value (OR7C2) was “inactive”, the “odorant receptor agonist call” value (OR7D2) was “inactive” and the “odorant receptor agonist call” value (OR7D4 (Homo sapiens)) was “inactive”.
With `CCCCCCCC=CC=O` the “odorant receptor agonist call” value (OR7C2) was “inactive”, the “odorant receptor agonist call” value (OR7D2) was “inactive” and the “odorant receptor agonist call” value (OR7D4 (Homo sapiens)) was “inactive”.
`COc1cc(C=O)ccc1O` was tested, and the “odorant receptor agonist call” value (OR7C2) was “inactive”, the “odorant receptor agonist call” value (OR7D2) was “inactive” and the “odorant receptor agonist call” value (OR7D4 (Homo sapiens)) was “inactive”.
In the case of `CC(C)C(=O)O`, the “odorant receptor agonist call” value (OR7C2) is reported as “inactive”, the “odorant receptor agonist call” value (OR7D2) is reported as “inactive” and the “odorant receptor agonist call” value (OR7D4 (Homo sapiens)) is reported as “inactive”.
For `CC(C)(C)c1ccc(CCC=O)cc1`, the “odorant receptor agonist call” value (OR7C2) was “inactive”, the “odorant receptor agonist call” value (OR7D2) was “inactive” and the “odorant receptor agonist call” value (OR7D4 (Homo sapiens)) was “inactive”.
For `CC12CCC(C1)C(C)(C)C2=O` (configuration not stated), the “odorant receptor agonist call” value (OR7C2) was “inactive”, the “odorant receptor agonist call” value (OR7D2) was “inactive” and the “odorant receptor agonist call” value (OR7D4 (Homo sapiens)) was “inactive”.
For `COC(=O)c1ccccc1`, the “odorant receptor agonist call” value (OR7C2) was “inactive”, the “odorant receptor agonist call” value (OR7D2) was “inactive” and the “odorant receptor agonist call” value (OR7D4 (Homo sapiens)) was “inactive”.
With `C=CC(C)(O)CCC=C(C)C` (configuration not stated) the “odorant receptor agonist call” value (OR7C2) was “inactive”, the “odorant receptor agonist call” value (OR7D2) was “inactive” and the “odorant receptor agonist call” value (OR7D4 (Homo sapiens)) was “inactive”.
In the case of `CCC1(O)C2(C)CCC(C2)C1(C)C` (configuration not stated), the “odorant receptor agonist call” value (OR7C2) is reported as “inactive”, the “odorant receptor agonist call” value (OR7D2) is reported as “inactive” and the “odorant receptor agonist call” value (OR7D4 (Homo sapiens)) is reported as “inactive”.
In the case of `CCCCCCOC(=O)CCC`, the “odorant receptor agonist call” value (OR7C2) is reported as “inactive”, the “odorant receptor agonist call” value (OR7D2) is reported as “inactive” and the “odorant receptor agonist call” value (OR7D4 (Homo sapiens)) is reported as “inactive”.
